Tested on: tetracysteine-tagged firefly luciferase
Test: BRET from tetracysteine-tagged firefly luciferase constructs to ReAsH
Format: biochemical
Conditions: for emission wavelength maximum after treatment with ReAsH: in vitro; for shift in the emission wavelength maximum: treatment with ReAsH; for emission centre of tagged luciferase: without acceptor dye
Text: Firefly luciferase fusion proteins with an optimized tetracysteine (TC) tag ([…]; SEQ ID NO:1) (Martin et al., Nature Biotechnology, 2005, 23:1308-14) fused onto either the amino (TCLuc1) or carboxy (TCLuc2) terminus of the luciferase protein (Promega's pGL3 (GenBank No. U47295.2)) were cloned and expressed (see list in Table 1). The proteins were expressed in E. Coli as GST fusions, purified by glutathione agarose affinity chromatography, and eluted as the TC-tagged protein by cleavage with PreScission™ protease.
The emission spectrum is sharpened, such that the maximum at 608 nm is actually higher than the 560 nm peak of luciferase (FIG. 3).
To help evaluate the role of distance and orientation on the BRET efficiency, additional N-terminal fusions of the TC tag were constructed (Table 1). […] The best-performing TCLuc1 fusion was cloned into pcDNA3.1 for expression in mammalian tissue culture cells. This construct lacks a C-terminal peroxisomal targeting sequence, and thus the expressed luciferase will localize to the cytoplasm.

O=c1ccc2nc3ccc(O)c([As]4SCCS4)c3oc-2c1[As]1SCCS1 [ReAsH, reference compound]
emission wavelength maximum after treatment with ReAsH: 608 nm

B1: TCLuc1: Firefly luciferase with optimized tetracysteine tag fused at the amino terminus, SEQ ID NO:2 (protein)
chain: GPLGSFLNCCPGCCMEPGSMEDAKNIKKGPAPFYPLEDGTAGEQLHKAMKRYALVPGTIAFTDAHIEVDITYAEYFEMSVRLAEAMKRYGLNTNHRIVVCSENSLQFFMPVLGALFIGVAVAPANDIYNERELLNSMGISQPTVVFVSKKGLQKILNVQKKLPIIQKIIIMDSKTDYQGFQSMYTFVTSHLPPGFNEYDFVPESFDRDKTIALIMNSSGSTGLPKGVALPHRTACVRFSHARDPIFGNQIIPDTAILSVVPFHHGFGMFTTLGYLICGFRVVLMYRFEEELFLRSLQDYKIQSALLVPTLFSFFAKSTLIDKYDLSNLHEIASGGAPLSKEVGEAVAKRFHLPGIRQGYGLTETTSAILITPEGDDKPGAVGKVVPFFEAKVVDLDTGKTLGVNQRGELCVRGPMIMSGYVNNPEATNALIDKDGWLHSGDIAYWDEDEHFFIVDRLKSLIKYKGYQVAPAELESILLQHPNIFDAGVAGLPDDDAGELPAAVVVLEHGKTMTEKEIVDYVASQVTTAKKLRGGVVFVDEVPKGLTGKLDARKIREILIKAKKGGKIAV
shift in the emission wavelength maximum: about 50 nm | emission wavelength maximum after treatment with ReAsH: 608 nm | emission centre of tagged luciferase: 560 nm

B2: TCLuc2: Firefly luciferase with optimized tetracysteine tag fused at the carboxy terminus, SEQ ID NO:3 (protein)
chain: GPLGSMEDAKNIKKGPAPFYPLEDGTAGEQLHKAMKRYALVPGTIAFTDAHIEVDITYAEYFEMSVRLAEAMKRYGLNTNHRIVVCSENSLQFFMPVLGALFIGVAVAPANDIYNERELLNSMGISQPTVVFVSKKGLQKILNVQKKLPIIQKIIIMDSKTDYQGFQSMYTFVTSHLPPGFNEYDFVPESFDRDKTIALIMNSSGSTGLPKGVALPHRTACVRFSHARDPIFGNQIIPDTAILSVVPFHHGFGMFTTLGYLICGFRVVLMYRFEEELFLRSLQDYKIQSALLVPTLFSFFAKSTLIDKYDLSNLHEIASGGAPLSKEVGEAVAKRFHLPGIRQGYGLTETTSAILITPEGDDKPGAVGKVVPFFEAKVVDLDTGKTLGVNQRGELCVRGPMIMSGYVNNPEATNALIDKDGWLHSGDIAYWDEDEHFFIVDRLKSLIKYKGYQVAPAELESILLQHPNIFDAGVAGLPDDDAGELPAAVVVLEHGKTMTEKEIVDYVASQVTTAKKLRGGVVFVDEVPKGLTGKLDARKIREILIKAKKGGKIAVFLNCCPGCCMEP
shift in the emission wavelength maximum: about 50 nm | emission wavelength maximum after treatment with ReAsH: 608 nm | emission centre of tagged luciferase: 560 nm
